Laboratory results reported in doi:10.1101/2020.04.23.057919.
These are yes or no findings as the source states them, for the method shown. Binding seen in cells or lysates may run through a third protein. Some binding calls cover weakened binding; strength is not graded here. Sequences can lack the tags named with a protein.

Protein sequences, listed by entry. Tags and fused reporters are not part of them.
UniProt Q91731: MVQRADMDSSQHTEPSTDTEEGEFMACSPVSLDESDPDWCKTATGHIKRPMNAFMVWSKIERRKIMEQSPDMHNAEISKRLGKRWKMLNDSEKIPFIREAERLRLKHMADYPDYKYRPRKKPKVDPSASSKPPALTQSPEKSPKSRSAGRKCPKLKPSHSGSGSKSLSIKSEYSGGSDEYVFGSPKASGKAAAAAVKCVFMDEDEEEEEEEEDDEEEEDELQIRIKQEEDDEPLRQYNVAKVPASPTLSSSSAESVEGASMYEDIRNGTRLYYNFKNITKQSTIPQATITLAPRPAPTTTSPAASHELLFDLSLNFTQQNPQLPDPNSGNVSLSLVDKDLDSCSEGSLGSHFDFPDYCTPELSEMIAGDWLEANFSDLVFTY
UniProt Q7M6Y2: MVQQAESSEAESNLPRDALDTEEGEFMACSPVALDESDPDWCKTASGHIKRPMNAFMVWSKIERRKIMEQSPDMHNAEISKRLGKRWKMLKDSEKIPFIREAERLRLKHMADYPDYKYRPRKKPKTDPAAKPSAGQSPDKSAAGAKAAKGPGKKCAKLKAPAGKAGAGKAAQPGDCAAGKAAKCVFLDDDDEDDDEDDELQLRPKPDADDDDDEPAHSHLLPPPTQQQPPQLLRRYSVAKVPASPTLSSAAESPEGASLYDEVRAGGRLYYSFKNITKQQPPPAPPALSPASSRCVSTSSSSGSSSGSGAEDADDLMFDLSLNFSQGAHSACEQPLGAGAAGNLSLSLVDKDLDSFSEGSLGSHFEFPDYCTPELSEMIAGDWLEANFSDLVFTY

Key:
[1] = biological target: Xenopus Sox11 with FLAG tag (xSox11-FLAG), expressed in HEK293 cells (Xenopus) (UniProt Q91731); assay: co-IP
[2] = biological target: mouse SOX11 with FLAG tag (mSOX11-FLAG) (mouse) (UniProt Q7M6Y2); assay: co-IP

binding [1]: no binding
binding [2]: binds
B1: mouse NGN1 with MYC tag (mNGN1-MYC) (protein, UniProt P70660 1-244)
chain: MPAPLETCISDLDCSSSNSSSDLSSFLTDEEDCARLQPLASTSGLSVPARRSAPALSGASNVPGAQDEEQERRRRRGRARVRSEALLHSLRRSRRVKANDRERNRMHNLNAALDALRSVLPSFPDDTKLTKIETLRFAYNYIWALAETLRLADQGLPGGSARERLLPPQCVPCLPGPPSPASDTESWGSGAAASPCATVASPLSDPSSPSASEDFTYGPGDPLFSFPGLPKDLLHTTPCFIPYH
